Test results reported in article PMC9243104.
These are yes or no findings as the source states them, for the method shown. For part of these data: Binding seen in cells or lysates may run through a third protein. Some binding calls cover weakened binding; strength is not graded here. Blank lines part the entries; values can stand above or below the substance they belong to.

Amino acid sequences for entries named in this document (tags omitted). Residues count along the entry.
UniProt P02769, residues 25-607: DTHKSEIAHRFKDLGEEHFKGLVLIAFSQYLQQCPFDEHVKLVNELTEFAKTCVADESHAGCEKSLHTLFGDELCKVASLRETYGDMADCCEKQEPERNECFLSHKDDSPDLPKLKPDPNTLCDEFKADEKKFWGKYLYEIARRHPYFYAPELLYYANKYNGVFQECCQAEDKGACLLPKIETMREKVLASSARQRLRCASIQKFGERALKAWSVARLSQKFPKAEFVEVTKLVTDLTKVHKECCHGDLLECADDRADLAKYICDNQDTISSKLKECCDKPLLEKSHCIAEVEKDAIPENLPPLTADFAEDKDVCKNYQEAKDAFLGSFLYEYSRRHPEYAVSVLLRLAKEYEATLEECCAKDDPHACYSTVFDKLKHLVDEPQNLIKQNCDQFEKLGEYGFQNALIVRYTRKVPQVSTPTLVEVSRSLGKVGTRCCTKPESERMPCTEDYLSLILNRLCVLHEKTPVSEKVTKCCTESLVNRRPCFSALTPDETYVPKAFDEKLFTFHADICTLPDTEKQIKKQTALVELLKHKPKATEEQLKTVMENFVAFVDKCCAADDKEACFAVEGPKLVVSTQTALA
UniProt P61244: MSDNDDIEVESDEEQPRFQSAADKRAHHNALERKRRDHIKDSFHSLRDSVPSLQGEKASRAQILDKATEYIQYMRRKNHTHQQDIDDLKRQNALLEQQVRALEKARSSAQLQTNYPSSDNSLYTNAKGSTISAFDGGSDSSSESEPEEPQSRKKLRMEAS
UniProt Q92547: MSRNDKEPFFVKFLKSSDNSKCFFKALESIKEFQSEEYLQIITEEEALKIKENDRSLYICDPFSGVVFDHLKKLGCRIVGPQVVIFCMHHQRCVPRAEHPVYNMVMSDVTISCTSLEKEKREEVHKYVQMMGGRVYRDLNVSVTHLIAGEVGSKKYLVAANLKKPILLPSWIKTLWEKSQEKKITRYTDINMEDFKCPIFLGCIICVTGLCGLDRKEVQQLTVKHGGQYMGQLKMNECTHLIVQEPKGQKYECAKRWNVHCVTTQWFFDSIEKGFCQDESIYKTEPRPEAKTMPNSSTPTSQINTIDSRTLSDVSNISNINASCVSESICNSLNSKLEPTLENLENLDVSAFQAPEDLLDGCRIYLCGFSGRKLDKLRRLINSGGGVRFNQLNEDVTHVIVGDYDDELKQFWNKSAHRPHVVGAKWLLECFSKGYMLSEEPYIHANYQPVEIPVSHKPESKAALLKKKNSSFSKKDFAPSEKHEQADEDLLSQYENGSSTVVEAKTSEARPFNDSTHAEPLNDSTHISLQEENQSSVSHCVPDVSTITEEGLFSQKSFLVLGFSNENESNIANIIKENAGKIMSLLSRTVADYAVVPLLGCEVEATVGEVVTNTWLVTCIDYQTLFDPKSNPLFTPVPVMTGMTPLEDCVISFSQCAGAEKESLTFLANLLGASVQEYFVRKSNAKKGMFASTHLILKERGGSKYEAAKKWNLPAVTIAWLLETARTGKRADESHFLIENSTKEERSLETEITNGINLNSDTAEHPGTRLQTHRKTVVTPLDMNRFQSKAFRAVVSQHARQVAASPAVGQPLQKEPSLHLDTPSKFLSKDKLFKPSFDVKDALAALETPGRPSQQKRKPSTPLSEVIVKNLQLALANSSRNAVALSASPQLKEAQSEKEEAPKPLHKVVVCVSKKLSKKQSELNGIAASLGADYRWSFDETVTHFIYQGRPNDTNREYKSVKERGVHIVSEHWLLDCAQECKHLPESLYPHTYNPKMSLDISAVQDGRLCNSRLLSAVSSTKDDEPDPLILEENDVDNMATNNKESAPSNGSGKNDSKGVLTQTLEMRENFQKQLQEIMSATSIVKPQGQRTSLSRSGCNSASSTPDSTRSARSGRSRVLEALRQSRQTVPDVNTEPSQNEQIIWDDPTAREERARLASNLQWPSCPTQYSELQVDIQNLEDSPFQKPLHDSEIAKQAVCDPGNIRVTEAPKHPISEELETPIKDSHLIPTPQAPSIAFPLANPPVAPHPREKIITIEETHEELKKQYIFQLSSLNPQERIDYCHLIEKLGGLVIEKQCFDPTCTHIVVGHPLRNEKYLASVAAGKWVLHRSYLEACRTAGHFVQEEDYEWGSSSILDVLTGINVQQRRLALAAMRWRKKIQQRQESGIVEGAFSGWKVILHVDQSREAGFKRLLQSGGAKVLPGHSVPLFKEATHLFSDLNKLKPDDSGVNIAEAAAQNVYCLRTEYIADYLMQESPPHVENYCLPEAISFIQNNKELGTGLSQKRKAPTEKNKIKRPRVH
UniProt P15927: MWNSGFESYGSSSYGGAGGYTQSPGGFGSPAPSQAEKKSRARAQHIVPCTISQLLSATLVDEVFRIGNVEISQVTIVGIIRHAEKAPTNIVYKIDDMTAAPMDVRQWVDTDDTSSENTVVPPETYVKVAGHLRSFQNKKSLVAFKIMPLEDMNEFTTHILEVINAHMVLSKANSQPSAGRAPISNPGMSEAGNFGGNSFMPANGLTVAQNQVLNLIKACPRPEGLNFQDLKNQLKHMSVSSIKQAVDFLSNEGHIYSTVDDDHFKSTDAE
UniProt P42768: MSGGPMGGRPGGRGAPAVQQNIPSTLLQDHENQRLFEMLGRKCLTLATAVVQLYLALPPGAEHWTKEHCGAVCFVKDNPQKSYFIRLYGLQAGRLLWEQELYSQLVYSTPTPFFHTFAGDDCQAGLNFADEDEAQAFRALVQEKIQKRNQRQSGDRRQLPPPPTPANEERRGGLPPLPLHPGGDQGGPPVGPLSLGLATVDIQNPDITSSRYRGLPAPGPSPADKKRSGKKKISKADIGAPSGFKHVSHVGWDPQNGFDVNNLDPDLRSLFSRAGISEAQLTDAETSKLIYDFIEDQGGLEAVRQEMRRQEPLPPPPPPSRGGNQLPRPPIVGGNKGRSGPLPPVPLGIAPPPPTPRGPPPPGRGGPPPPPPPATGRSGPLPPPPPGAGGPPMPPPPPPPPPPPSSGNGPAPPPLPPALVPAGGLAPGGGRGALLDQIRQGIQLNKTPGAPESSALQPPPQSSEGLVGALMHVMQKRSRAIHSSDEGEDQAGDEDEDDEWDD
UniProt Q13535: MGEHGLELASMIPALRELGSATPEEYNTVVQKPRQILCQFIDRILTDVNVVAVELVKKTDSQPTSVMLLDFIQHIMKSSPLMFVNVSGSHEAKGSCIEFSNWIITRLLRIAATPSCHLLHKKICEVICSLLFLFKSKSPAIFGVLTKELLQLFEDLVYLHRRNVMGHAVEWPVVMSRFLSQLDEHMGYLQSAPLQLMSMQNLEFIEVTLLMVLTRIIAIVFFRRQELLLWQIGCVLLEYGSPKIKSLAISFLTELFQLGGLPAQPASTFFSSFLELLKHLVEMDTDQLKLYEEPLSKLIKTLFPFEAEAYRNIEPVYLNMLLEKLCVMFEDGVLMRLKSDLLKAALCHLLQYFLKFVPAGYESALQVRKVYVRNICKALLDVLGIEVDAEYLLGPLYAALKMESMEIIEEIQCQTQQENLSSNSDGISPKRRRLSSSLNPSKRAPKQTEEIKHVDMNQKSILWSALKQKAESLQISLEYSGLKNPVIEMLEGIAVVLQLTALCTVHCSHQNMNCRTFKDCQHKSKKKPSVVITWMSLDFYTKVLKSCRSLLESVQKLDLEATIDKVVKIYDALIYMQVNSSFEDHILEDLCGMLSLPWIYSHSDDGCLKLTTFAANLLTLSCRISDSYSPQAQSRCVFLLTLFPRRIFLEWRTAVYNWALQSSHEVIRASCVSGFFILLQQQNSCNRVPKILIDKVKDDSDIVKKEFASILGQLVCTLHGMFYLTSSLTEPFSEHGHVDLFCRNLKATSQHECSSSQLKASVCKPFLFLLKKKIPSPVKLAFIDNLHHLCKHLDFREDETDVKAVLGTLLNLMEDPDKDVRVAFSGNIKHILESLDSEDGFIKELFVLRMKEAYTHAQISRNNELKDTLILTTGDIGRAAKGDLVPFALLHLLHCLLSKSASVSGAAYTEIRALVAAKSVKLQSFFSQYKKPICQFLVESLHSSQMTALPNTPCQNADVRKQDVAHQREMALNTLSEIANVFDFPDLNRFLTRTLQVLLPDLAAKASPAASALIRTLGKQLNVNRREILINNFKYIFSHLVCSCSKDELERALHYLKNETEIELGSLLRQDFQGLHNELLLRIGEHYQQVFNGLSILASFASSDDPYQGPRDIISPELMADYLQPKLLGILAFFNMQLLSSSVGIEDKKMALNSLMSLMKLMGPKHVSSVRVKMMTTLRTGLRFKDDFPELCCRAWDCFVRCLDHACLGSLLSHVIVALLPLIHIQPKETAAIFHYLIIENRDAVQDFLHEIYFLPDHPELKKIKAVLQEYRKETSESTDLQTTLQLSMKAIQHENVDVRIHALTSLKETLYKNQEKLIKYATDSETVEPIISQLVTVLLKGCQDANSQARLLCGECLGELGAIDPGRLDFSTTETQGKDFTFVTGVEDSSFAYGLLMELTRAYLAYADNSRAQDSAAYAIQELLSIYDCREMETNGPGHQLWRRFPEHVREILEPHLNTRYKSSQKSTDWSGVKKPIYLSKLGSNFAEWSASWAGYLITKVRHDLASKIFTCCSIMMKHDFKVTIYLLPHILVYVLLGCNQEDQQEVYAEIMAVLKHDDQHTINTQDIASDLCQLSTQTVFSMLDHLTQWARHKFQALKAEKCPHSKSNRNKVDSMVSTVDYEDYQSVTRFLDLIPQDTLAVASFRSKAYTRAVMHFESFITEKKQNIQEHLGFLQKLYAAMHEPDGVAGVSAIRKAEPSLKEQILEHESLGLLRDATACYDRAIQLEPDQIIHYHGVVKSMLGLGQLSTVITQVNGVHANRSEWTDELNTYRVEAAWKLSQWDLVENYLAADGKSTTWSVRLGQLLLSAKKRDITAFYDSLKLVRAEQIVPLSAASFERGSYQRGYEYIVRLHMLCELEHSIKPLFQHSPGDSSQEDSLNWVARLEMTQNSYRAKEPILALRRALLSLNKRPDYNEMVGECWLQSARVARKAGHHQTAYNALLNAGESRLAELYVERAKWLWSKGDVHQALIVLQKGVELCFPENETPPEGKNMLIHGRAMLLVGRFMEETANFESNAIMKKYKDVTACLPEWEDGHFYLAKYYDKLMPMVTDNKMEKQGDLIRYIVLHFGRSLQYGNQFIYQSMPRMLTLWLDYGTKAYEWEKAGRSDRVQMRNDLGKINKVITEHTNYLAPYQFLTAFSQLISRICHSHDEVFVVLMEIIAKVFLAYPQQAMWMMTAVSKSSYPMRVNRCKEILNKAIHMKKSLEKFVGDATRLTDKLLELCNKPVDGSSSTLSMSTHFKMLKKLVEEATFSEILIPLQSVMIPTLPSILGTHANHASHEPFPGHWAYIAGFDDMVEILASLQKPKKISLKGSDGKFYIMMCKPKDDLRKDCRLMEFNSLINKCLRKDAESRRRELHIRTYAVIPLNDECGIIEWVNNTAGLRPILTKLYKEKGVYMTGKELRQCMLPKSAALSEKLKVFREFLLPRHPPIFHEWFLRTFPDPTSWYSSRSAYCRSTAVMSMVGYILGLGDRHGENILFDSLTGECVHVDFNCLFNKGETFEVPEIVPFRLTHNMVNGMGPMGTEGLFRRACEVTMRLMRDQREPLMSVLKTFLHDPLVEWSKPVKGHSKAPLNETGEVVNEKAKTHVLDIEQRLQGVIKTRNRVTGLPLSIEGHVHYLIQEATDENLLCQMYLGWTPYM

Columns and labels:
[1] = molecular target: γH2A.X (endogenous, human T and B cells) (human (endogenous in T and B cells)) (UniProt P16104); assay: proximity ligation; Duolink PLA on fixed, permeabilised human T cells and B cells, endogenous proteins; cells treated with HU or CPT (2 h or 4 h); WT and WASp-deficient cells compared in some panels
[2] = molecular target: Bovine serum albumin (bovine) (UniProt P02769); assay: ELISA; 1 µg of 1st protein coated on a 96-well plate (1 h, 25 °C), blocked with 5% milk in PBS; 2nd protein added at increasing concentrations in blocking buffer (1 h, 25 °C); detected with anti-WASp antibody, OD450; RPA coated alone or after pre-incubation with 1 nM ssDNA; both purified
[3] = molecular target: Human MAX (Myc-associated factor X) (human) (UniProt P61244); assay: as above
[4] = molecular target: TOPBP1 (endogenous, human T cells) (human (endogenous in T cells)) (UniProt Q92547); assay: proximity ligation; Duolink PLA on fixed, permeabilised human T cells and B cells, endogenous proteins; cells treated with HU or CPT (2 h or 4 h); WT and WASp-deficient cells compared in some panels
[5] = molecular target: γH2A.X (endogenous, human T and B cells) (human (endogenous in T and B cells)) (UniProt P16104); assay: proximity ligation; Duolink PLA on fixed, permeabilised human T cells and B cells, endogenous proteins; no damage control (no genotoxin)

binding [1]: binds
Substance: RPA2(pSer33) (endogenous, human T and B cells) (from UniProt P15927 1-270)

Substance: Recombinant human WT*WASp (Wiskott-Aldrich syndrome protein) (from UniProt P42768 1-502)
binding [2]: no binding (tested: highest amount of WT*WASp 1 μg)
binding [3]: no binding (tested: highest amount of WT*WASp 1 μg)

binding [4]: binds
Substance: ATR (endogenous, human T cells) (from UniProt Q13535 1-2644) (enzyme)

binding [1]: binds
Substance: Endogenous WASp of human T cells and B cells (from UniProt P42768 1-502)
binding [5]: no binding (condition: without genotoxin (no damage))
